The values below come from patent US10525115B2 (Immatics Biotechnologies GmbH, priority 2014, dated 2020).

What all share (design): species or system human
The subject of one series is BMNC of healthy donors. Briefly: HLA class I ligandome analysis (LC-MS/MS) of healthy donor BMNC. The conditions noted are these: for Number of positive healthy donors (BMNC): HLA class I ligandome, second figure of the cell; for Number of positive healthy donors (BMNC) / rep. frequency % in healthy donors (BMNC): 5 BMNC samples.
The next series concerns primary AML samples. Put plainly: HLA class I ligandome analysis (W6/32 immunoaffinity purification, LC-MS/MS) of primary AML samples. The conditions noted are these: for Number of positive AMLs: HLA class I ligandome; for Number of positive AMLs / rep. frequency % in AMLs: 15 AML samples.
A further series has as its system PBMC of healthy donors. Briefly: HLA class I ligandome analysis (LC-MS/MS) of healthy donor PBMC. The following applies: for Number of positive healthy donors (PBMC): HLA class I ligandome, first figure of the cell; for Number of positive healthy donors (PBMC) / rep. frequency % in healthy donors (PBMC): 30 PBMC samples.
Setting [1] is: source protein level, HLA class I.
The mark [2] stands for this setting: HLA class I, source protein level.

B1: PRTN3 proteinase 3: established AML-associated antigen, source protein of the HLA ligands listed under it (protein, UniProt P24158 28-248, looked up)
Myeloblastin: IVGGHEAQPHSRPYMASLQMRGNPGSHFCGGTLIHPSFVLTAAHCLRDIPQRLVNVVLGAHNVRTQEPTQQHFSVAQVFLNNYDAENKLNDVLLIQLSSPANLSASVATVQLPQQDQPVPHGTQCLAMGWGRVGAHDPPAQVLQELNVTVVTFFCRPHNICTFVPRRKAGICFGDSGGPLICDGIIQGIDSFVIWGCATRLFPDFFTRVALYVDWIRSTLR
In the case of B1, the “Number of positive healthy donors (BMNC)” value in the series with BMNC of healthy donors is listed as 4. The “rep. frequency % in healthy donors (BMNC)” value (“rep. frequency % … (BMNC)” for short) in the series with BMNC of healthy donors (source protein level) amounted to 80.0%. In addition, the “Number of positive AMLs” value in the series on primary AML samples came out at 2. Besides, the “rep. frequency % in AMLs” value with primary AML samples (setting [1]) is on record as 13.3%. In addition, in the series with PBMC of healthy donors, the “Number of positive healthy donors (PBMC)” value is on record as 2. In addition, the “rep. frequency % in healthy donors (PBMC)” value (from here on “rep. frequency % … (PBMC)”) in the series with PBMC of healthy donors (source protein level) is recorded as 6.6%.

B2: MPO myeloperoxidase: established AML-associated antigen, source protein of the HLA ligands listed under it (protein, UniProt P05164 165-745, looked up)
Myeloperoxidase: VTCPEQDKYRTITGMCNNRRSPTLGASNRAFVRWLPAEYEDGFSLPYGWTPGVKRNGFPVALARAVSNEIVRFPTDQLTPDQERSLMFMQWGQLLDHDLDFTPEPAARASFVTGVNCETSCVQQPPCFPLKIPPNDPRIKNQADCIPFFRSCPACPGSNITIRNQINALTSFVDASMVYGSEEPLARNLRNMSNQLGLLAVNQRFQDNGRALLPFDNLHDDPCLLTNRSARIPCFLAGDTRSSEMPELTSMHTLLLREHNRLATELKSLNPRWDGERLYQEARKIVGAMVQIITYRDYLPLVLGPTAMRKYLPTYRSYNDSVDPRIANVFTNAFRYGHTLIQPFMFRLDNRYQPMEPNPRVPLSRVFFASWRVVLEGGIDPILRGLMATPAKLNRQNQIAVDEIRERLFEQVMRIGLDLPALNMQRSRDHGLPGYNAWRRFCGLPQPETVGQLGTVLRNLKLARKLMEQYGTPNNIDIWMGGVSEPLKRKGRVGPLLACIIGTQFRKLRDGDRFWWENEGVFSMQQRQALAQISLPRIICDNTGITTVSKNNIFMSNSYPRDFVNCSTLPALNLASWREAS
As for B2, the “Number of positive healthy donors (BMNC)” value in the series with BMNC of healthy donors is 3. In the series with BMNC of healthy donors (setting [2]), the “representation in normal BMNC ligandomes (positive/total)” value is listed as 3/5. Also, the “rep. frequency % … (BMNC)” value in the series on BMNC of healthy donors (source protein level) was 60.0%; in the series on BMNC of healthy donors (source protein level, listed as MPO) it was 60%. Besides, the “Number of positive AMLs” value in the series on primary AML samples is 6. In addition, in the series on primary AML samples (setting [2]), the “detected/represented in AML patient ligandomes (positive/total)” value was 6/15. Moreover, the “rep. frequency % in AMLs” value worked out at 40.0% with primary AML samples (setting [1]) and 40% in the series on primary AML samples (source protein level, HLA class I, listed as MPO). Moreover, the “Number of positive healthy donors (PBMC)” value in the series with PBMC of healthy donors came to 0. Besides, the “representation in PBMC ligandomes (positive/total)” value with PBMC of healthy donors (setting [2]) was 0/30. The “rep. frequency % … (PBMC)” value in the series with PBMC of healthy donors (source protein level) is listed as 0.0%.

B3: NUSAP1 nucleolar and spindle associated protein 1: established AML-associated antigen, source protein of the HLA ligands listed under it (protein, UniProt Q9BXS6 1-441, looked up)
Nucleolar and …: MIIPSLEELDSLKYSDLQNLAKSLGLRANLRATKLLKALKGYIKHEARKGNENQDESQTSASSCDETEIQISNQEEAERQPLGHVTKTRRRCKTVRVDPDSQQNHSEIKISNPTEFQNHEKQESQDLRATAKVPSPPDEHQEAENAVSSGNRDSKVPSEGKKSLYTDESSKPGKNKRTAITTPNFKKLHEAHFKEMESIDQYIERKKKHFEEHNSMNELKQQPINKGGVRTPVPPRGRLSVASTPISQRRSQGRSCGPASQSTLGLKGSLKRSAISAAKTGVRFSAATKDNEHKRSLTKTPARKSAHVTVSGGTPKGEAVLGTHKLKTITGNSAAVITPFKLTTEATQTPVSNKKPVFDLKASLSRPLNYEPHKGKLKPWGQSKENNYLNQHVNRINFYKKTYKQPHLQTKEEQRKKREQERKEKKAKVLGMRRGLILAED
Take B3: the “Number of positive healthy donors (BMNC)” value with BMNC of healthy donors is listed as 2. Besides, the “rep. frequency % … (BMNC)” value with BMNC of healthy donors (source protein level) is recorded as 40.0%. Further, in the series on PBMC of healthy donors, the “Number of positive healthy donors (PBMC)” value is given as 2. In addition, the “rep. frequency % … (PBMC)” value in the series on PBMC of healthy donors (source protein level) stood at 6.6%.

B4: MAGED1 melanoma antigen family D, 1: established AML-associated antigen, source protein of the HLA ligands listed under it (protein, UniProt Q9Y5V3 1-778, looked up)
Melanoma-associated antigen D1: MAQKMDCGAGLLGFQAEASVEDSALLMQTLMEAIQISEAPPTNQATAAASPQSSQPPTANEMADIQVSAAAARPKSAFKVQNATTKGPNGVYDFSQAHNAKDVPNTQPKAAFKSQNATPKGPNAAYDFSQAATTGELAANKSEMAFKAQNATTKVGPNATYNFSQSLNANDLANSRPKTPFKAWNDTTKAPTADTQTQNVNQAKMATSQADIETDPGISEPDGATAQTSADGSQAQNLESRTIIRGKRTRKINNLNVEENSSGDQRRAPLAAGTWRSAPVPVTTQNPPGAPPNVLWQTPLAWQNPSGWQNQTARQTPPARQSPPARQTPPAWQNPVAWQNPVIWPNPVIWQNPVIWPNPIVWPGPVVWPNPLAWQNPPGWQTPPGWQTPPGWQGPPDWQGPPDWPLPPDWPLPPDWPLPTDWPLPPDWIPADWPIPPDWQNLRPSPNLRPSPNSRASQNPGAAQPRDVALLQERANKLVKYLMLKDYTKVPIKRSEMLRDIIREYTDVYPEIIERACFVLEKKFGIQLKEIDKEEHLYILISTPESLAGILGTTKDTPKLGLLLVILGVIFMNGNRASEAVLWEALRKMGLRPGVRHPLLGDLRKLLTYEFVKQKYLDYRRVPNSNPPEYEFLWGLRSYHETSKMKVLRFIAEVQKRDPRDWTAQFMEAADEALDALDAAAAEAEARAEARTRMGIGDEAVSGPWSWDDIEFELLTWDEEGDFGDPWSRIPFTFWARYHQNARSRFPQTFAGPIIGPGGTASANFAANFGAIGFFWVE
As to B4, the “Number of positive healthy donors (BMNC)” value in the series on BMNC of healthy donors was 3. The “rep. frequency % … (BMNC)” value in the series with BMNC of healthy donors (source protein level) is 60.0%. Moreover, in the series on primary AML samples, the “Number of positive AMLs” value came to 6. Moreover, in the series on primary AML samples (setting [1]), the “rep. frequency % in AMLs” value is recorded as 40.0%. In addition, the “Number of positive healthy donors (PBMC)” value with PBMC of healthy donors was found to be 15. Moreover, the “rep. frequency % … (PBMC)” value with PBMC of healthy donors (source protein level) turned out to be 50.0%.

B5: PRAM1 PML-RARA regulated adaptor molecule 1: established AML-associated antigen, source protein of the HLA ligands listed under it (protein, UniProt Q96QH2 1-670, looked up)
PML-RARA-regulated adapter …: MAHHLPAAMESHQDFRSIKAKFQASQPEPSDLPKKPPKPEFGKLKKFSQPELSEHPKKAPLPEFGAVSLKPPPPEVTDLPKKPPPPEVTDLPKKPPPPEVTDLPKKPPPPEVTDLPKKPSKLELSDLSKKFPQLGATPFPRKPLQPEVGEAPLKASLPEPGAPARKPLQPDELSHPARPPSEPKSGAFPRKLWQPEAGEATPRSPQPELSTFPKKPAQPEFNVYPKKPPQPQVGGLPKKSVPQPEFSEAAQTPLWKPQSSEPKRDSSAFPKKASQPPLSDFPKKPPQPELGDLTRTSSEPEVSVLPKRPRPAEFKALSKKPPQPELGGLPRTSSEPEFNSLPRKLLQPERRGPPRKFSQPEPSAVLKRHPQPEFFGDLPRKPPLPSSASESSLPAAVAGFSSRHPLSPGFGAAGTPRWRSGGLVHSGGARPGLRPSHPPRRRPLPPASSLGHPPAKPPLPPGPVDMQSFRRPSAASIDLRRTRSAAGLHFQDRQPEDIPQVPDEIYELYDDVEPRDDSSPSPKGRDEAPSVQQAARRPPQDPALRKEKDPQPQQLPPMDPKLLKQLRKAEKAEREFRKKFKFEGEIVVHTKMMIDPNAKTRRGGGKHLGIRRGEILEVIEFTSNEEMLCRDPKGKYGYVPRTALLPLETEVYDDVDFCDPLENQPLPLGR
For the molecule B5, in the series with BMNC of healthy donors, the “Number of positive healthy donors (BMNC)” value worked out at 1. Moreover, in the series with BMNC of healthy donors (source protein level), the “rep. frequency % … (BMNC)” value is given as 20.0%. For the same molecule, the “Number of positive AMLs” value with primary AML samples stood at 3. Also, the “rep. frequency % in AMLs” value in the series on primary AML samples (setting [1]) was found to be 20.0%.

B6: RGS5 regulator of G-protein signaling 5: established AML-associated antigen, source protein of the HLA ligands listed under it (protein, UniProt O15539 1-181, looked up)
Regulator of G-protein …: MCKGLAALPHSCLERAKEIKIKLGILLQKPDSVGDLVIPYNEKPEKPAKTQKTSLDEALQWRDSLDKLLQNNYGLASFKSFLKSEFSEENLEFWIACEDYKKIKSPAKMAEKAKQIYEEFIQTEAPKEVNIDHFTKDITMKNLVEPSLSSFDMAQKRIHALMEKDSLPRFVRSEFYQELIK
As for B6, in the series on BMNC of healthy donors, the “Number of positive healthy donors (BMNC)” value was 0. Besides, in the series on BMNC of healthy donors (source protein level), the “rep. frequency % … (BMNC)” value was found to be 0.0%. For the same molecule, the “Number of positive AMLs” value in the series on primary AML samples came out at 2. Also, in the series on primary AML samples (setting [1]), the “rep. frequency % in AMLs” value was found to be 13.3%. Also, the “Number of positive healthy donors (PBMC)” value in the series on PBMC of healthy donors was determined as 1. Also, the “rep. frequency % … (PBMC)” value with PBMC of healthy donors (source protein level) amounted to 3.3%.

B7: SSX2IP synovial sarcoma, X breakpoint 2 interacting protein: established AML-associated antigen, source protein of the HLA ligands listed under it (protein, UniProt Q9Y2D8 1-614, looked up)
Afadin- and …: MGDWMTVTDPGLSSESKTISQYTSETKMSPSSLYSQQVLCSSIPLSKNVHSFFSAFCTEDNIEQSISYLDQELTTFGFPSLYEESKGKETKRELNIVAVLNCMNELLVLQRKNLLAQENVETQNLKLGSDMDHLQSCYSKLKEQLETSRREMIGLQERDRQLQCKNRNLHQLLKNEKDEVQKLQNIIASRATQYNHDMKRKEREYNKLKERLHQLVMNKKDKKIAMDILNYVGRADGKRGSWRTGKTEARNEDEMYKILLNDYEYRQKQILMENAELKKVLQQMKKEMISLLSPQKKKPRERVDDSTGTVISDVEEDAGELSRESMWDLSCETVREQLTNSIRKQWRILKSHVEKLDNQVSKVHLEGFNDEDVISRQDHEQETEKLELEIQQCKEMIKTQQQLLQQQLATAYDDDTTSLLRDCYLLEEKERLKEEWSLFKEQKKNFERERRSFTEAAIRLGLERKAFEEERASWLKQQFLNMTTFDHQNSENVKLFSAFSGSSDWDNLIVHSRQPQKKPHSVSNGSPVCMSKLTKSLPASPSTSDFCQTRSCISEHSSINVLNITAEEIKPNQVGGECTNQKWSVASRPGSQEGCYSGCSLSYTNSHVEKDDLP
In the case of B7, the “Number of positive healthy donors (BMNC)” value with BMNC of healthy donors was determined as 0. The “rep. frequency % … (BMNC)” value in the series with BMNC of healthy donors (source protein level) worked out at 0.0%. Further, in the series on primary AML samples, the “Number of positive AMLs” value is on record as 0. The “rep. frequency % in AMLs” value with primary AML samples (setting [1]) is on record as 0.0%.
